Results on one sequence are retold here after PMC8187598.

Construct, isoform or probe ends are uncertain for at least one entry.

This data set has as its system GlnR (Streptomyces hygroscopicus var. ascomyceticus FS35). Put plainly: EMSA. The note with it: 5 ng probe, GlnR titration; EMSA: 5 ng Cy5 probe, 30 min at 28 C, reaction buffer as in Zhang et al. 2019 (composition not given); 6% native PAGE, 0.5x TBE, ice bath, 90 V, 40 min; recombinant protein; residues 1-270; protein details: N-terminal 6xHis; probe letters rebuilt from the primers and the genome.

As to “AGCCAGTGGCGATAAGTGTGGACGTCTCCTCGAAACGACGGCCCGTGCGGGCAGGACATCGGGGGCCGGTATTCGCCTCGAGGTTGGCGCAGCGCCGTTTCAGTCGATGCCACCCGATGTTTCGCCGCAGTGACGAAGGACGCGGGAGTGTTACGTACCGATGAACCGCGGTGAGGAGGGCCACGCCCTCCGTTACCGTGTCGCAACCACCGCGGGGACCGCCTTATCGCCACTGGCT (double strand) [amtB-glnK-glnD promoter probe]”, the binding result is on record as “binds”.
